# These are yes or no findings as the source states them, for the method shown. Some results given as binding are weak or reduced against the parent protein; the word gives no strength.
# By UniProt entry, the sequences of proteins in these tests, tags left out. Residues count along the entry.
# UniProt Q59L12, residues 18-1134: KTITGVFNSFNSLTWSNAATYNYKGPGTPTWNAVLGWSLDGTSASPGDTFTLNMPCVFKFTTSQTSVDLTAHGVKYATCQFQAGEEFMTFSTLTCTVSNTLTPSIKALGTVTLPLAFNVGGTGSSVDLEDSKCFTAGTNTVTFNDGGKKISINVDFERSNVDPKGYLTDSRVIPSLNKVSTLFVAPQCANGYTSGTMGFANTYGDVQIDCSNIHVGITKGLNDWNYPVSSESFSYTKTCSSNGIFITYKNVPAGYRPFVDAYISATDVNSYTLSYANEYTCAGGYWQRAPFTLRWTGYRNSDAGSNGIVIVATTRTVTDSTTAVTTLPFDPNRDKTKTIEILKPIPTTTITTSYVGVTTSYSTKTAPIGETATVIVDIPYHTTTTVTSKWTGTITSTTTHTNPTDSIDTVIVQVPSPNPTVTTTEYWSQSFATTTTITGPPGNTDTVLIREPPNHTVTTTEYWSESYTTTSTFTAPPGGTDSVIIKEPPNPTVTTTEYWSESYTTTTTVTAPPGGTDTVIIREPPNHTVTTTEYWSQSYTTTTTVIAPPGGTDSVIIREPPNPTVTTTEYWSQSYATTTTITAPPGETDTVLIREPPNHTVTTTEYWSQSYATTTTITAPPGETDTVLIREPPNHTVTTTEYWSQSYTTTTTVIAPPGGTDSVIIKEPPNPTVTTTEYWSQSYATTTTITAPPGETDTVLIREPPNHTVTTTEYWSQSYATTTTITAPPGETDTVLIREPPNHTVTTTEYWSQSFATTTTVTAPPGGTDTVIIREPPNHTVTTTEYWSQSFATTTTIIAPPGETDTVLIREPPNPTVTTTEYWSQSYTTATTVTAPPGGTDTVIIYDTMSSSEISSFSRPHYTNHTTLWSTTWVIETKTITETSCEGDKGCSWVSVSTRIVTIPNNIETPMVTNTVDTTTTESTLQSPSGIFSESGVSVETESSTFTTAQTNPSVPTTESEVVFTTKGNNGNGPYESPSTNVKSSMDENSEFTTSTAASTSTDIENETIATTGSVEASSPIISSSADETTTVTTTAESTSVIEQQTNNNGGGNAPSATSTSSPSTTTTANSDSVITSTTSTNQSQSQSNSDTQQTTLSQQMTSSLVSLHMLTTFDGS
# UniProt Q5AL03, residues 21-895: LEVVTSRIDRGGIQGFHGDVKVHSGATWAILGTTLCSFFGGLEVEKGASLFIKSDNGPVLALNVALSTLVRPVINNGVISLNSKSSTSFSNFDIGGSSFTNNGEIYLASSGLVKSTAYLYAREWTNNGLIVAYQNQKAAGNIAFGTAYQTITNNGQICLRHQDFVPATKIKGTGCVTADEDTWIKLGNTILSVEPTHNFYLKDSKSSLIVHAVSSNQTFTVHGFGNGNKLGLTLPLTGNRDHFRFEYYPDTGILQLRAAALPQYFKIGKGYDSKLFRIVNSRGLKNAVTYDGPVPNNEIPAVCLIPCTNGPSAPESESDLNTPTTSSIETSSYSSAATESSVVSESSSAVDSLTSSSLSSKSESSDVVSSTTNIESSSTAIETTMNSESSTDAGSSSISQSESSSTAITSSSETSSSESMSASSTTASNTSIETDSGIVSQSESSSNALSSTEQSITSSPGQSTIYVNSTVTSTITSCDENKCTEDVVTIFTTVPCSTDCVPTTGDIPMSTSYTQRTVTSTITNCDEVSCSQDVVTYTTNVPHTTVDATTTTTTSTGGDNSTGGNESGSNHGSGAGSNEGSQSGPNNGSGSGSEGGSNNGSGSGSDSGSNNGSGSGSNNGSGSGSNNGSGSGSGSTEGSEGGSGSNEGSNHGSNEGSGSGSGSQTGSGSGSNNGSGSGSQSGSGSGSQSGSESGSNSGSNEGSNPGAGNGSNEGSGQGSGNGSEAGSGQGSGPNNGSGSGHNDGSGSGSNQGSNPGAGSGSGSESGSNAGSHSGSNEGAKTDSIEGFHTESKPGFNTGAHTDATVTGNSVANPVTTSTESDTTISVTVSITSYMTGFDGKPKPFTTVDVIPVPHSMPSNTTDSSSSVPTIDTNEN
# UniProt P08581, residues 25-932: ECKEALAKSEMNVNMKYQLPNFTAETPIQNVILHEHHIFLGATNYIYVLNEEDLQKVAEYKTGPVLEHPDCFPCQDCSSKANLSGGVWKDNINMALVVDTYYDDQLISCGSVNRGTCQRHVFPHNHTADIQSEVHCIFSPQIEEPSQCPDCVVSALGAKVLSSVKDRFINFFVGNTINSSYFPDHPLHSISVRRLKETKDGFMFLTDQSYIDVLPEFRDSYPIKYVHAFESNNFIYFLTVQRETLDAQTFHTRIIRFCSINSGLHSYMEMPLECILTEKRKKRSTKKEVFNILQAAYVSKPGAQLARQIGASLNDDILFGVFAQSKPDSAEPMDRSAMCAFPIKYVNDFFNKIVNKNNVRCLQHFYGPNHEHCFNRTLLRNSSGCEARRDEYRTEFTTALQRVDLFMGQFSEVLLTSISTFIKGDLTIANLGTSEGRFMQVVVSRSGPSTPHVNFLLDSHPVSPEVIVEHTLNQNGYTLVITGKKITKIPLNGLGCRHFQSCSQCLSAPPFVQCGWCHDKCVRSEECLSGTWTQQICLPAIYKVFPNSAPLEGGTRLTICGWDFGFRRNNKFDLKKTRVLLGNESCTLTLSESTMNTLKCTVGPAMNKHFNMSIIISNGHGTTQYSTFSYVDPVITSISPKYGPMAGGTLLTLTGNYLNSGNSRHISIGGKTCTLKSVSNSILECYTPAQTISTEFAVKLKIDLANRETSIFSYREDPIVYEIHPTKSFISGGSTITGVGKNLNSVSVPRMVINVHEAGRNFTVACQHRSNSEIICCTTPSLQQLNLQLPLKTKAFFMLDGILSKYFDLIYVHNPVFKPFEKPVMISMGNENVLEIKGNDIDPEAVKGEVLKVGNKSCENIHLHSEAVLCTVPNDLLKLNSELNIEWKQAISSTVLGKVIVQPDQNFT
# Assays:
# [1] = target: C. albicans Als3 (C. albicans) (UniProt Q59L12); test: far-Western, overlay or dot blot; 15 ug of proteins released by regenerating C. albicans protoplasts, non-reducing/non-denaturing SDS-PAGE, PVDF membrane, probed with recombinant c-Met and an anti human c-Met antibody; the matching band of a parallel gel was excised and its proteins identified by tandem mass spectrometry; only the binder purified
# [2] = target: C. albicans Hyr1 (C. albicans) (UniProt Q5AL03); test: as above
substance,measurement,setting,value
recombinant c-Met (from UniProt P08581 25-932) (receptor),binding,[1],binds
same,binding,[2],binds
